Reference: PubChem BioAssay AID540275 (National Center for Advancing Translational Sciences (NCATS), 2011)
In all, about 320,000 compounds went through this assay and about 620 (0.19%) were called active. Inconclusive means that the source gave no clear call. Such entries were picked first, then a sample of the others. No stated cut-off is given here; in the data, active means activation above about 80%; inconclusive means between about 30% and that limit; inactive means weaker than that.
Further: 0% is about no effect.

Sequences of proteins named here, by UniProt entry; tags and fusion partners are left off.
UniProt Q8NER1, whole entry, looked up: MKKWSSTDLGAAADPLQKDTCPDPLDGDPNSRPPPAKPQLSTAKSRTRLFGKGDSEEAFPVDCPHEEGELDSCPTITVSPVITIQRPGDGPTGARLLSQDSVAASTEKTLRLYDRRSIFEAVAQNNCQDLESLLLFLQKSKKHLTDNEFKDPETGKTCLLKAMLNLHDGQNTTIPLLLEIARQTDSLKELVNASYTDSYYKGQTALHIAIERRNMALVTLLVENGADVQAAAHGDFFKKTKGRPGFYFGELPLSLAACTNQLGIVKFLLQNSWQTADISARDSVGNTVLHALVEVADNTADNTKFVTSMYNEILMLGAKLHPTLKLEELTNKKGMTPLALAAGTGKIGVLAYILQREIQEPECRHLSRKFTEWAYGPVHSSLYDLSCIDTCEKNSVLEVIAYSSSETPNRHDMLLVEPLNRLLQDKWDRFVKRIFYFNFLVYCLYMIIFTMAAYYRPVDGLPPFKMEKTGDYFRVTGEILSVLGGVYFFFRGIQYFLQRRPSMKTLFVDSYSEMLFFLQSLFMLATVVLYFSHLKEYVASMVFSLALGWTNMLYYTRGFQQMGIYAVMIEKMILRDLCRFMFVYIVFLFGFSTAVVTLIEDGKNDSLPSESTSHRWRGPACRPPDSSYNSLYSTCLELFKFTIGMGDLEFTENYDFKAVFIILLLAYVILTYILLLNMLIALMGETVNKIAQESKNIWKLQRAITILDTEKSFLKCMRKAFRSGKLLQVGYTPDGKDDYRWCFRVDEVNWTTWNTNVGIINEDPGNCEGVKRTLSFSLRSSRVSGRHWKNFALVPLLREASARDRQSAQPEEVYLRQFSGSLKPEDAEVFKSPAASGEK

What follows are molecules tested against Transient receptor potential cation channel subfamily V member 1 (Homo sapiens) (UniProt Q8NER1) (assay: HTS Assay for Compounds that Act as Agonists of the Vanilloid Receptor 1). Details: TRPV1-expressing cells, Fluo-8 calcium influx, agonist mode; at 8.33 µM, active compounds read high.
Method in brief: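 Cells expressing TRPV1 were dye-loaded with Fluo-8 and read kinetically: 10 s baseline, 3 min after compound (agonist portion), then 2 min after EC20 capsaicin (allosteric enhancer portion). Calcium-bound dye fluorescence at 480/520 nm.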
With Cc1ccc(OCCNC(=O)/C=C/c2ccccc2)cc1C the activation was inconclusive: 31%.
For O=C(Nc1ccc(N2CCCC2)cc1)c1ccc(Br)cc1, the activation was inconclusive: 77%.
With CC(C)c1ccc(NC(=O)N2CCOCC2)cc1 the activation was active: 94.7%.
For COc1ccc(-c2nnc(SCC(=O)c3ccc[nH]3)o2)cc1, the activation was inconclusive: 30.9%.
In the case of COc1ccc(CN(C)C(=O)/C=C/c2ccc(S(=O)(=O)N3CCCCCC3)cc2)cc1, the activation was inconclusive: 33.8%.
With CC(C)OC(=O)NCCOC(=O)Nc1ccc(Cl)c(Cl)c1 the activation was inconclusive: 42.3%.
For COc1cc2c(c(OCC(=O)NC(C)C)c1)C(=O)O[C@@H](C)CCCC(=O)CCCCC2, the activation was inconclusive: 30.5%.
Cc1cc(C)c(-c2cc(NC(=O)CSc3n[nH]c(N)n3)n(-c3ccccc3)n2)cc1C was tested, and the activation was inconclusive: 33.2%.
For Cc1cccc(OCC(=O)Nc2ccc3c(c2)nc(CN2CCCCC2)n3C)c1, the activation was inactive: 0.414%.
With COc1ccccc1CNC(=O)N1CCN(S(=O)(=O)c2ccccc2)CC1 the activation was inconclusive: 40.8%.
With CNc1nc(NCCOC23CC4CC(CC(C4)C2)C3)nc(OCC(F)(F)F)n1 the activation was inconclusive: 46.8%.
In the case of NC1=NC(=O)/C(=C/c2ccsc2)S1, the activation was inactive: 3.63%.
O=C(Nc1nc(-c2ccco2)c(-c2ccco2)s1)C1CCC1 was tested, and the activation was inconclusive: 40.4%.
In the case of CCN(CC)S(=O)(=O)c1cc(C)c(C)cc1OCC(=O)NC1CCCC1, the activation was inconclusive: 49%.
For COc1cccc(CNC(=O)COc2cc(O)c3c(c2)OC(C)(C)CC3=O)c1, the activation was inconclusive: 65%.
With CS(=O)(=O)N(CC(=O)Nc1cc(Cl)ccc1Cl)c1ccccc1Cl the activation was inconclusive: 34.8%.
Fc1ccc(-c2nc3ccccn3c2NCc2ccc3c(c2)OCO3)cc1 was tested, and the activation was inconclusive: 63.3%.
For O=C(NC1CC1)C1CCN(C2CCN(C(=O)Cc3ccc4c(c3)OCO4)CC2)CC1, the activation was inactive: 12.8%.
For CCCCN1CC(=O)N2[C@H]3c4ccccc4OC[C@@H]3[C@H](c3ccccc3)[C@]2(C)C1=O, the activation was inconclusive: 38.5%.
With CCOC(=O)[C@H]1[C@H]2COc3ccc(Cl)cc3[C@@H]2N2C(=O)CN(Cc3ccccc3)C(=O)[C@@]12C the activation was inconclusive: 35.9%.
With O=C(Nc1ccccn1)C1CCN(C(=O)Nc2ccccc2)CC1 the activation was inconclusive: 57.2%.
With Cc1ccc(C(=O)N/C(=C\c2cccs2)C(=O)N2CCCCCC2)cc1 the activation was inconclusive: 36%.
For O=C(C1CCCN(Cc2ccccc2F)C1)N1CCc2ccccc2C1 (stereo not given), the activation was inactive: 5.32%.
With COc1cccc(Nc2nc3ccccc3nc2NS(=O)(=O)c2cccs2)c1 the activation was inactive: 2.94%.
In the case of O=C(CNC(=O)c1ccc2c(c1)OCCO2)N/N=C/c1cccc(Br)c1, the activation was inactive: -2.25%.
COc1ccc(C(=O)N/N=C(\C)CC(=O)Nc2cccc(C(F)(F)F)c2)cc1 was tested, and the activation was inconclusive: 39.5%.
In the case of Cc1c(C(=O)N2CCC(C)CC2)oc2ccc3c(c12)C(O)CC1(CCCCC1)O3 (stereo not given), the activation was inconclusive: 40.4%.
In the case of O=C(Nc1ccc(S(=O)(=O)N2CCCC2)cc1)c1ccc(CN2CCOCC2)cc1, the activation was inconclusive: 59.4%.
In the case of N#CC(c1ccc(Cl)cc1)c1ccc2c(C(F)(F)F)cc(C(F)(F)F)nc2n1 (stereo not given), the activation was inactive: 18.7%.
In the case of CCOc1ccc(NC(=O)C2C(c3ccccc3)C2(Cl)Cl)cc1 (stereo not given), the activation was inconclusive: 44.8%.
COc1ccc(CNc2ccc3c(c2)ncn3C)cc1OC was tested, and the activation was inactive: 1.57%.
In the case of COCC(C)NC(=O)CSc1nc2ccccc2n1CCc1ccccc1 (stereo not given), the activation was inconclusive: 51.6%.
For COc1cc(C(=O)NNC(=O)C2CCC2)cc(OC)c1OC, the activation was inactive: 2.33%.
For O=C(c1ccc(Cl)cc1)C1CCN(C(=O)NC2CCCCC2)CC1, the activation was inconclusive: 36.5%.
In the case of c1csc(-c2nc(NCC3CCCO3)c3ccccc3n2)c1 (stereo not given), the activation was inconclusive: 49.8%.
For CC(=O)N1c2ccc(S(=O)(=O)NCCC(=O)NC3CCCCCC3)cc2CC1C (stereo not given), the activation was inactive: 2.53%.
For Cc1cc(C)cc(NC(=O)N2CCC(C(=O)c3ccc(F)cc3)CC2)c1, the activation was inconclusive: 67.3%.
With CCOc1ccc2noc3c2c1C(=O)c1ccccc1-3 the activation was inconclusive: 38.6%.
For CC(=O)Nc1ccc(NC(=O)C(C)OC(=O)/C(C#N)=C/c2ccc(N(C)C)cc2)cc1 (stereo not given), the activation was inactive: 28.1%.
OCCNc1nc(-c2ccccc2)nc2ccccc12 was tested, and the activation was inconclusive: 30.3%.
For COC(=O)CSc1nc(C)c(C)c(C)c1C(N)=O, the activation was inactive: -1.97%.
Cc1sc(NC(=O)CSc2nnnn2C2CCCCC2)c(C#N)c1C was tested, and the activation was inactive: 4.08%.
In the case of CC(C)CCc1noc(CN(C)CCC2CCOCC2)n1, the activation was inactive: 6.87%.
COc1ccc(NC(=O)/C=C/c2ccccc2)c([N+](=O)[O-])c1 was tested, and the activation was inactive: 19.7%.
For CCOC(=O)c1nn(-c2ccc(OCC)cc2)c2nc(CC(C)C)c(C#N)c(=O)n12, the activation was inactive: 1.89%.
CC(C)CCNC(=O)c1onc(CSc2ccncc2)c1C(=O)NCCC(C)C was tested, and the activation was inconclusive: 71.1%.
CCN(CC(=O)NCc1ccc(F)cc1)Cc1cc(=O)n2ccsc2n1 was tested, and the activation was inactive: -4.11%.
COc1ccc(S(=O)(=O)NC2CC(=O)N(c3ccc(C)c(C)c3)C2)cc1C (stereo not given) was tested, and the activation was inconclusive: 30.4%.
With COc1ccc(/C=C/C(=O)NCCc2nc3ccccc3[nH]2)cc1 the activation was inconclusive: 46.3%.
CC(C)Cc1ccc(/C=C/C(=O)N2CCCCC2)cc1 was tested, and the activation was inconclusive: 75.9%.
For COc1cccc(CNc2ncnc3cc(OC)c(OC)cc23)c1, the activation was inactive: 1.51%.
In the case of COC(=O)c1ccc(NC(=O)Nc2cccc(F)c2)cc1, the activation was inconclusive: 44.5%.
For O=C(Nc1cccc2ccccc12)c1ccc([N+](=O)[O-])s1, the activation was inconclusive: 70.4%.
In the case of O=C(Nc1ccc(F)cc1)c1ccc(S(=O)(=O)N2CCOCC2)o1, the activation was inconclusive: 59.7%.
CCc1ccc(C(=O)N2CCN(S(=O)(=O)c3sc(C(=O)O)c(C)c3C(=O)O)CC2)cc1 was tested, and the activation was inactive: 0.16%.
For COC(=O)Cc1c(C)c2ccc(O)c(CNCc3ccc(OC)c(OC)c3)c2oc1=O, the activation was inconclusive: 43.9%.
In the case of O=C(Nc1ccc(N2CCN(C(=O)c3ccccc3F)CC2)cc1)c1cncc(Br)c1, the activation was inactive: 9.93%.
For Cc1ccc(C(C(=O)NC2CCCC2)N(C(=O)Cc2cccs2)c2ccc(C)c(C)c2)o1 (stereo not given), the activation was inconclusive: 62.8%.
For N#Cc1c(-n2cccc2C=O)sc2c1CCCC2, the activation was inconclusive: 30.2%.
In the case of C[C@@H]1O[C@@H](OC[C@H]2O[C@@H](Oc3c(-c4ccc(O)c(O)c4)oc4cc(O)cc(O)c4c3=O)[C@H](O)[C@@H](O)[C@@H]2O)[C@H](O)[C@H](O)[C@H]1O, the activation was inactive: -1.5%.
O=c1cc(N2CCN(c3ccccc3F)CC2)[nH]c(=O)n1-c1ccc(Br)cc1 was tested, and the activation was inconclusive: 35.8%.
In the case of Cc1ccsc1C(=O)NCC(=O)OCc1ccccc1, the activation was inactive: 15.8%.
For CCCc1nc2ccccc2c(=O)n1CCc1ccccc1, the activation was inconclusive: 35.6%.
Cc1ccc(-n2c(-c3c(-c4ccccc4)noc3C)n[nH]c2=S)cc1 was tested, and the activation was inactive: 1.63%.
In the case of CCCCCC(O)(c1ccc(OCC)cc1)C(CN1CCOCC1)c1ccccc1 (stereo not given), the activation was inconclusive: 39.6%.
With CCN(CC)c1ccc(S(=O)(=O)N(CC)CC)cc1NC(=O)c1cccnc1 the activation was inactive: 13.1%.
O=C(Nc1ccc(F)cc1)c1ccc2c(=O)n(CC3CCCO3)c(=S)[nH]c2c1 (stereo not given) was tested, and the activation was inconclusive: 58.5%.
For C=CCNc1nc(Nc2ccc(OC)cc2)nc(OCC)n1, the activation was inconclusive: 38.2%.
In the case of CC(C)OC(=O)/C(C#N)=C\c1cccnc1, the activation was inactive: 0.749%.
For CCOC(=O)c1c(C)oc2c1cc(O)c1ccccc12, the activation was inconclusive: 38.4%.
CC(=O)/C(N=Nc1cccc(C(F)(F)F)c1)=C(\C)O was tested, and the activation was inconclusive: 49.3%.
O=C(CSc1nnc(COc2ccccc2)o1)c1ccccc1 was tested, and the activation was inactive: 9.85%.
O=C(Nc1ccc(F)cc1)NC1CCN(Cc2ccccc2)CC1 was tested, and the activation was inconclusive: 54.8%.
N#CNC(=Nc1cccc(F)c1)SCc1ccccc1F was tested, and the activation was inconclusive: 57.4%.
Clc1ccc2nc(CSCc3ccccc3)cn2c1 was tested, and the activation was inconclusive: 33.4%.
Cc1nnc(N/N=C/c2ccc(-c3ccccc3F)o2)n1N was tested, and the activation was inactive: -2.58%.
In the case of CC(=O)c1cccc(NC(=O)N2CCC(NC(=O)C3CCCCC3)CC2)c1, the activation was inconclusive: 40%.
For Cc1ccc2c(CN3CCC(C)CC3)cc(=O)oc2c1, the activation was inconclusive: 36.8%.
With CN(CC(=O)Nc1ccccc1Cl)C(=O)c1ccc(-c2cccc(C(F)(F)F)c2)o1 the activation was inconclusive: 31.3%.
With Cc1cc(C)n(CC(=O)O)n1 the activation was inactive: -0.113%.
COc1ccc2c(-c3ccccc3)cc(SC(C)C(N)=O)nc2c1 (stereo not given) was tested, and the activation was inconclusive: 35.4%.
For Cc1ccc(C(=O)Nc2ccc3ccccc3n2)cc1, the activation was inconclusive: 78.2%.
For Cc1cc(C(=O)N2CCCC(Nc3ccc(C(C)C)cc3)C2)nn1C (stereo not given), the activation was inconclusive: 69.2%.
With CC(C)(C)c1cc(C(=O)N/N=C/c2ccc(O)cc2)n(-c2ccccc2)n1 the activation was inconclusive: 32.2%.
In the case of CNC(=S)N1CCN(c2nc(-c3cccc(OC)c3)cs2)CC1, the activation was inconclusive: 36.5%.
For CCn1c(SCC(=O)c2cc(C)ccc2C)nc2cc(S(=O)(=O)N3CCOCC3)ccc21, the activation was inconclusive: 66.1%.
C=CCc1cc(C)ccc1OCCOCCC(C(=O)OCC)C(=O)OCC was tested, and the activation was inconclusive: 31%.
With O=C(NCc1ccc(Cl)c(Cl)c1)c1ccco1 the activation was inconclusive: 31.1%.
For CC(C)c1ccc(NC(=O)CC2Oc3ccccc3NC2=O)cc1 (stereo not given), the activation was inconclusive: 36.6%.
For COc1cc2nc(/C=C/c3ccc(N(C)C)cc3)sc2cc1SC, the activation was inconclusive: 53.6%.
